The supplement of paper PMC8728848
The list shows a part of the results.

Tests used:
Assay in all cases: glycan array binding signal (z-score within array); higher = stronger binding
Details in all cases: glycan notation: IUPAC condensed, linker removed
[1] = target: Fuc(a1-3)GlcNAc
In short: (§1)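 From the Consortium for Functional Glycomics database, 3228 arrays were curated, keeping only those whose protein sequence was available. Binding is given as a within-array Z-score averaged across arrays sharing a protein sequence and across linkers. Negative Z-scores can be read as non-binding.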

[2] = target: Fuc(a1-3)[Gal(b1-4)]Glc6S
In short: as §1

[3] = target: Fuc(a1-3)[Gal(b1-4)]GlcNAc
In short: as §1

[4] = target: Fuc(a1-3)[Gal(b1-4)]GlcNAc(b1-2)Man
In short: as §1

[5] = target: Fuc(a1-3)[Gal(b1-4)]GlcNAc(b1-2)Man(a1-3)[Fuc(a1-3)[Gal(b1-4)]GlcNAc(b1-2)Man(a1-6)]Man(b1-4)GlcNAc(b1-4)GlcNAc
In short: as §1

[6] = target: Fuc(a1-3)[Gal(b1-4)]GlcNAc(b1-2)Man(a1-3)[Fuc(a1-3)[Gal(b1-4)]GlcNAc(b1-2)Man(a1-6)]Man(b1-4)GlcNAc(b1-4)[Fuc(a1-6)]GlcNAc
In short: as §1

[7] = target: Fuc(a1-3)[Gal(b1-4)]GlcNAc(b1-3)Gal(b1-3)[Fuc(a1-4)]GlcNAc
In short: as §1

[8] = target: Fuc(a1-3)[Gal(b1-4)]GlcNAc(b1-3)Gal(b1-4)[Fuc(a1-3)]GlcNAc
In short: as §1

[9] = target: Fuc(a1-3)[Gal(b1-4)]GlcNAc(b1-3)Gal(b1-4)[Fuc(a1-3)]GlcNAc(b1-3)Gal(b1-4)[Fuc(a1-3)]GlcNAc
In short: as §1

[10] = target: Fuc(a1-3)[Gal(b1-4)]GlcNAc(b1-3)GalNAc
In short: as §1

[11] = target: Fuc(a1-3)[Gal(b1-4)]GlcNAc(b1-6)GalNAc
In short: as §1

[12] = target: Fuc(a1-3)[Gal(b1-4)]GlcNAc(b1-6)[Gal(b1-3)GlcNAc(b1-3)]Gal(b1-4)Glc
In short: as §1

[13] = target: Fuc(a1-3)[Gal(b1-4)]GlcNAc6S
In short: as §1

[14] = target: Fuc(a1-3)[Gal3S(b1-4)]Glc
In short: as §1

[15] = target: Fuc(a1-3)[Gal3S(b1-4)]GlcNAc
In short: as §1

[16] = target: Fuc(a1-3)[Gal3S(b1-4)]GlcNAc6S
In short: as §1

[17] = target: Fuc(a1-3)[GalNAc(b1-4)]GlcNAc
In short: as §1

[18] = target: Fuc(a1-3)[GalNAc(b1-4)]GlcNAc6S
In short: as §1

[19] = target: Fuc(a1-4)GlcNAc
In short: as §1

[20] = target: Fuc(b1-3)GlcNAc
In short: as §1

[21] = target: Gal(a1-2)Gal
In short: as §1

[22] = target: Gal(a1-3)Gal
In short: as §1

[23] = target: Gal(a1-3)Gal(b1-3)GlcNAc
In short: as §1

[24] = target: Gal(a1-3)Gal(b1-3)GlcNAc(b1-2)Man
In short: as §1

[25] = target: Gal(a1-3)Gal(b1-3)GlcNAc(b1-2)Man(a1-3)[Gal(a1-3)Gal(b1-3)GlcNAc(b1-2)Man(a1-6)]Man(b1-4)GlcNAc(b1-4)GlcNAc
In short: as §1

[26] = target: Gal(a1-3)Gal(b1-3)GlcNAc(b1-3)GalNAc
In short: as §1

[27] = target: Gal(a1-3)Gal(b1-3)GlcNAc(b1-6)GalNAc
In short: as §1

[28] = target: Gal(a1-3)Gal(b1-3)[Fuc(a1-4)]GlcNAc(b1-2)Man(a1-3)[Gal(a1-3)Gal(b1-3)[Fuc(a1-4)]GlcNAc(b1-2)Man(a1-6)]Man(b1-4)GlcNAc(b1-4)GlcNAc
In short: as §1

[29] = target: Gal(a1-3)Gal(b1-4)Glc
In short: as §1

[30] = target: Gal(a1-3)Gal(b1-4)GlcNAc
In short: as §1

[31] = target: Gal(a1-3)Gal(b1-4)GlcNAc(b1-2)Man
In short: as §1

[32] = target: Gal(a1-3)Gal(b1-4)GlcNAc(b1-2)Man(a1-3)[Gal(a1-3)Gal(b1-4)GlcNAc(b1-2)Man(a1-6)]Man(b1-4)GlcNAc(b1-4)GlcNAc
In short: as §1

[33] = target: Gal(a1-3)Gal(b1-4)GlcNAc(b1-3)GalNAc
In short: as §1

[34] = target: Gal(a1-3)Gal(b1-4)GlcNAc(b1-6)GalNAc
In short: as §1

[35] = target: Gal(a1-3)Gal(b1-4)[Fuc(a1-3)]GlcNAc
In short: as §1

[36] = target: Gal(a1-3)Gal(b1-4)[Fuc(a1-3)]GlcNAc(b1-2)Man(a1-3)[Gal(a1-3)Gal(b1-4)[Fuc(a1-3)]GlcNAc(b1-2)Man(a1-6)]Man(b1-4)GlcNAc(b1-4)GlcNAc
In short: as §1

[37] = target: Gal(a1-3)GalNAc
In short: as §1

B1: PX9961M-bvu-482-23-482 (Bacteroides vulgatus) (protein)
chain: WLDLAPSTQVDTETSINVLSDIEFTLNGIYSTMQSSDAYSGRLVYYGDVTGDDMQAVSSTKRTGNYYRFNFTKDNGPSSHWSYLYSIIQNCNLILMNVDKLSIDEDETEYKNDLKGQALAIRGMALFDLTRIFGYPYLKDNGASLGVPIVKELSTIDSKPARNTVAECYTEIISDLKNSTELLSGDFNKGKVNRWAAMTLLSRVYLYKGEYNEALTMAENAIKGAEKEGYALWTNEEYPTAWGNDASASNPGEILFEIVNLTTDSPGKESMGYLNSYNGYDDMCITCSFYQLLKKDPKDVRLKILSFDKKYYAYVNKYQPQQGENITDANIPLIRLSEAYLNAAEAAVQTGDNAKAVKYLNSIVQRANPENSVEGKTLTLENVLDERRKELVAEGHRMYDVIRNGMTVKRIDVKDSDINKTKHNTAYMEYDWNFHKILLPIPKKEMDANPNMKQNPGYVD
- glycan array binding signal (z-score) [1]: -0.637
- glycan array binding signal (z-score) [2]: -0.15
- glycan array binding signal (z-score) [3]: -0.692
- glycan array binding signal (z-score) [4]: -0.391
- glycan array binding signal (z-score) [5]: -0.441
- glycan array binding signal (z-score) [6]: 1.97
- glycan array binding signal (z-score) [7]: -0.631
- glycan array binding signal (z-score) [8]: -0.327
- glycan array binding signal (z-score) [9]: 0.335
- glycan array binding signal (z-score) [10]: -0.016
- glycan array binding signal (z-score) [11]: -0.457
- glycan array binding signal (z-score) [12]: 0.141
- glycan array binding signal (z-score) [13]: -0.74
- glycan array binding signal (z-score) [14]: -0.445
- glycan array binding signal (z-score) [15]: 0.504
- glycan array binding signal (z-score) [16]: -0.788
- glycan array binding signal (z-score) [17]: 0.771
- glycan array binding signal (z-score) [18]: -0.542
- glycan array binding signal (z-score) [19]: 0.856
- glycan array binding signal (z-score) [20]: -0.445
- glycan array binding signal (z-score) [21]: -0.332
- glycan array binding signal (z-score) [22]: -0.668
- glycan array binding signal (z-score) [23]: 1.37
- glycan array binding signal (z-score) [24]: -0.071
- glycan array binding signal (z-score) [25]: -0.261
- glycan array binding signal (z-score) [26]: -0.339
- glycan array binding signal (z-score) [27]: -0.479
- glycan array binding signal (z-score) [28]: 0.327
- glycan array binding signal (z-score) [29]: -0.347
- glycan array binding signal (z-score) [30]: -0.37
- glycan array binding signal (z-score) [31]: -0.696
- glycan array binding signal (z-score) [32]: 0.825
- glycan array binding signal (z-score) [33]: -0.454
- glycan array binding signal (z-score) [34]: 0.342
- glycan array binding signal (z-score) [35]: 0.455
- glycan array binding signal (z-score) [36]: -0.324
- glycan array binding signal (z-score) [37]: -0.738
